This note sets out measurements from PubChem BioAssay AID1487 (National Center for Advancing Translational Sciences (NCATS), 2009).

The list shows a part of the results. The main result of the screen is listed elsewhere. These columns were measured beside it and carry no call. Compounds called inactive in the main read-out are mostly missing here. Words in brackets tell the shape of the fitted curve; partial curves, single points and poor fits give uncertain potencies.

A short description of this experiment: qHTS Assay for Modulators of Lamin A Splicing. Conditions: HeLa LMNA splicing GFP/RFP minigene ratio, 48 h. The gist of the method: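 S3 HeLa cells stably expressing lamin A-EGFP splicing minigene plus DsRed2, 600 cells/well, 48 h compound exposure at 37C. Laser-scanning cytometry; analysed as GFP (500-530 nm)/RFP (575-640 nm) total intensity ratio; 0.5% DMSO vehicle.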

[1] abbreviates: measured here: RFP viability control channel.
The mark [2] stands for this setting: measured here: GFP splicing reporter channel.

`O=C(N/N=C/C1CC=CCC1)c1ccc(Cl)cc1O` (stereo not given): the AC50 under setting [1] is 35.5 µM [rising, single point].

For the compound `O=C(NN=C(Cc1ccccc1)Cc1ccccc1)c1ccccc1O`, the AC50 under setting [2] is 0.01 µM [rising, partial curve].

For the compound `Cn1c(CO)cnc1SCc1ccc(F)cc1`, under setting [2], the AC50 is 12.6 µM [falling, single point].

Take `Cc1c(NCc2cc(Cl)cc(Cl)c2O)c(=O)n(-c2ccccc2)n1C`: the AC50 runs as follows: under setting [2], 17.8 µM [rising, single point]; under setting [1], 12.6 µM [rising, single point].

For the compound `Cc1nc(NCc2ccccn2)c2ccccc2n1`, the AC50 under setting [1] is 28.2 µM [rising, single point].

Consider `O=c1c2ccccc2nc(/C=C/c2cccc([N+](=O)[O-])c2)n1CCO`, for which the AC50 under setting [1] is 14.1 µM [rising, partial curve, poor fit].

`CCC(Sc1nnc(-c2ccc(OC)cc2)c(-c2ccc(OC)cc2)n1)C(=O)NC1CCCCC1` (stereo not given): the AC50 under setting [1] was 35.5 µM [rising, single point].

Regarding `Cc1ccc(/C(N)=N/OC(=O)N2CCOCC2)cc1`, the AC50 under setting [2] is 12.6 µM [falling, single point] and the AC50 under setting [1] is 25.1 µM [falling, single point].

As for `Cc1ccc(S(=O)(=O)NCCC(c2ccc(F)cc2)c2ccco2)cc1` (stereo not given), the AC50 under setting [1] was 35.5 µM [rising, single point].

`CCC1CCCCN1C(=S)NC(=O)c1ccc([N+](=O)[O-])cc1` (stereo not given): the AC50 under setting [1] is 14.1 µM [rising, single point].

Take `COc1ccc(N2CC(NC(=O)c3ccc(S(=O)(=O)N4CCCC4)cc3)CC2=O)cc1` (stereo not given): the AC50 under setting [1] was 0.0501 µM [falling, full curve].

As for `COc1cccc(N2CC(NC(=O)/C=C\c3ccc4c(c3)OCO4)CC2=O)c1` (stereo not given), the AC50 under setting [2] was 2.24 µM [rising, full curve, poor fit].

Regarding `O=C(CCCn1c(=S)[nH]c2cc3c(cc2c1=O)OCO3)N1CCN(c2ccc(Cl)cc2)CC1`, the AC50 runs as follows: under setting [2], 2.82 µM [rising, full curve, poor fit]; under setting [1], 7.94 µM [rising, partial curve].

As for `COc1ccccc1NC(=O)CCSc1ccc(C)cc1`, the AC50 is 28.2 µM [falling, partial curve, poor fit] under setting [2] and 35.5 µM [falling, single point] under setting [1].

`CC1(C)CC(NC(=S)Nc2ccc([N+](=O)[O-])cc2)CC(C)(C)N1`: the AC50 was 0.794 µM [falling, full curve] under setting [2] and 0.501 µM [falling, full curve, poor fit] under setting [1].

On to `O=c1cc(N2CCN(c3ccccc3)CC2)[nH]c(=O)n1-c1ccccc1`, for which the AC50 under setting [1] was 0.0126 µM [falling, full curve].

`COc1ccccc1Nc1cc(C(=O)NCCCN(C)c2ccccc2)c2ccccc2n1`: the AC50 under setting [1] was 35.5 µM [rising, single point].

With `Cc1nc2cc(N3CCCCC3)c(NC(=O)c3ccncc3)cc2c(=O)n1Cc1ccccc1`, under setting [2], the concentration at half-maximal activity (AC50) is 17.8 µM [rising, single point].

With `NC(=O)C1CCCN(C(=S)Nc2ccccc2)C1` (stereo not given), the half-maximal activity concentration (AC50) under setting [1] was 2.24 µM [falling, partial curve].

With `CCOC(=O)C1=C(N)n2c(s/c(=C\c3cccs3)c2=O)=C(C(=O)OCC)C1c1cccs1` (stereo not given), the AC50 under setting [1] was 7.08 µM [rising, partial curve].

`COc1ccccc1NC(=O)Cn1nnc(-c2ccccc2NS(=O)(=O)c2ccccc2)n1`: the concentration at half-maximal activity (AC50) under setting [1] is 1.41 µM [rising, partial curve, poor fit].

For the compound `CCn1c(SCC(=O)c2ccc(C)cc2)nnc1-c1ccncc1`, under setting [1], the AC50 was 0.224 µM [falling, full curve].

Turning to `CCNc1nc(CN2CCCCC2)nc2scc(-c3ccccc3)c12`, the concentration at half-maximal activity (AC50) under setting [1] was 20 µM [rising, partial curve, poor fit].

For the compound `COc1ccc(CN2C(=O)NC3(CCCCCC3)C2=O)cc1F`, the half-maximal activity concentration (AC50) by setting is: under setting [2], 22.4 µM [rising, single point]; under setting [1], 22.4 µM [rising, single point].

In the case of `Cc1n[nH]c(C)c1S(=O)(=O)N1CCCC(C(=O)N2CCc3ccccc32)C1` (stereo not given), under setting [2], the AC50 was 20 µM [rising, single point].

As to `COC(=O)CNc1nc(-c2ccccc2F)nc2ccccc12`, the AC50 is 25.1 µM [falling, single point] under setting [2] and 35.5 µM [falling, single point] under setting [1].

As to `CCn1c(SCC(=O)Nc2ccc3c(c2)oc2ccccc23)nnc1-c1ccc(N)cc1`, the half-maximal activity concentration (AC50) by setting is: under setting [2], 14.1 µM [rising, single point]; under setting [1], 10 µM [rising, partial curve].

For the compound `Cc1ccc(CSCC(=O)N2CCN(c3ccc(F)cc3)CC2)cc1`, the AC50 runs as follows: under setting [2], 35.5 µM [rising, single point]; under setting [1], 35.5 µM [rising, single point].

Take `O=S(=O)(/N=C(/Nc1ccccn1)c1ccc(Cl)cc1)c1ccc(Cl)cc1`: the AC50 under setting [1] is 35.5 µM [rising, single point].

On to `CC(=O)Oc1c(S(=O)(=O)c2ccc(C)cc2)c(C)nn1C(C)(C)C`, for which the concentration at half-maximal activity (AC50) was 5.01 µM [falling, partial curve, poor fit] under setting [2] and 22.4 µM [falling, partial curve] under setting [1].

Consider `Nc1c(C(=O)Nc2ccccc2)sc2nc3c(c(-c4ccco4)c12)CCC3`, for which, under setting [1], the AC50 was 4.47 µM [rising, full curve, poor fit].

As for `C=CCNC(C(=O)Nc1cccc(OC)c1)c1ccccc1` (stereo not given), under setting [2], the AC50 is 10 µM [falling, partial curve].

Consider `Cc1cccc(N(CC(=O)Nc2ccc(Br)cc2)S(C)(=O)=O)c1C`, for which the AC50 under setting [2] is 0.0178 µM [falling, full curve, poor fit].

Regarding `O=C(Nc1ccc(OC(F)F)cc1)Nc1cccc(C(F)(F)F)c1`, the AC50 under setting [1] was 11.2 µM [rising, single point].

For the compound `O=C(Nc1nc2ccccc2s1)c1ccc2c(c1)OCO2`, the AC50 under setting [1] was 0.398 µM [rising, partial curve, poor fit].

For `O=C(Nc1ccc(CN2CCOCC2)cc1)c1ccc(-c2cc(Cl)ccc2Cl)o1`, the half-maximal activity concentration (AC50) under setting [1] is 14.1 µM [rising, partial curve].

With `COc1ccc(OC)c(NC(=O)c2c(NCc3ccc(C)o3)sc3c2CCC(C)C3)c1` (stereo not given), under setting [2], the AC50 is 7.08 µM [falling, partial curve].

For the compound `COc1ccc(C(=O)NCc2ccc3c(c2)CCN3C(=O)c2ccncc2)cc1`, the AC50 was 1.12 µM [falling, partial curve] under setting [2] and 2.82 µM [falling, partial curve, poor fit] under setting [1].

For the compound `OCCCc1nc2n(n1)C(c1cccs1)C=C(c1ccc(Br)cc1)N2` (stereo not given), the AC50 was 35.5 µM [falling, single point] under setting [2] and 35.5 µM [falling, single point] under setting [1].

For `CCN1/C(=C/c2ccc3cccc(C)c3[n+]2CC)Sc2ccccc21`, the AC50 under setting [1] is 10 µM [falling, partial curve].

Regarding `Fc1ccc(-c2nnc(NC3=NCCCCC3)o2)cc1`, under setting [2], the AC50 was 14.1 µM [rising, partial curve, poor fit].

Consider `Cc1ccc(CN2CCCn3nc(C(=O)NCCc4ccc(Cl)cc4)cc3C2=O)cc1`, for which the AC50 under setting [2] is 35.5 µM [falling, partial curve, poor fit].

Turning to `Cc1ccc(Oc2nc3ccccn3c(=O)c2/C=C(\C#N)C(=O)Nc2c(C)n(C)n(-c3ccccc3)c2=O)cc1`, the AC50 under setting [1] is 10 µM [rising, partial curve, poor fit].

Take `CCCCOC(=O)n1c(=O)oc2cc(S(=O)(=O)N3CCCCC3)ccc21`: the AC50 under setting [1] is 28.2 µM [rising, single point].

On to `S=c1[nH]nc(-c2ccccc2)n1/N=C/c1ccc(-c2ccccc2Cl)o1`, for which the AC50 is 12.6 µM [rising, partial curve, poor fit] under setting [2] and 5.01 µM [rising, full curve] under setting [1].

For `COc1ccccc1C(=O)NCC1CCN(c2ccc(S(=O)(=O)N3CCOCC3)cc2)CC1`, under setting [1], the AC50 was 31.6 µM [rising, single point].

Turning to `O=C(NCC(c1cccnc1)N1CCN(Cc2ccccc2)CC1)C(=O)Nc1ccc(Cl)cc1` (stereo not given), the AC50 under setting [2] is 8.91 µM [falling, full curve, poor fit].

Regarding `CC(C)c1cc(C(=O)Nc2cc(Cl)ccc2O)no1`, the concentration at half-maximal activity (AC50) under setting [1] was 10 µM [rising, partial curve].

Turning to `CCC(C)NC(=O)c1ccc(-n2c(-c3ccccc3)cc3c2CCCC3)cc1` (stereo not given), the AC50 by setting is: under setting [2], 25.1 µM [falling, single point]; under setting [1], 0.00631 µM [falling, full curve, poor fit].

For `Cc1ccc(CCNC(=O)C2CCCN(C(=O)c3cc4sccc4n3C)C2)cc1` (stereo not given), the AC50 runs as follows: under setting [2], 14.1 µM [rising, partial curve]; under setting [1], 12.6 µM [rising, partial curve].

Take `COc1ccc2c(c1)CCc1c(C(=O)NCCc3ccc(OC)c(OC)c3)noc1-2`: under setting [1], the AC50 is 0.112 µM [rising, partial curve].

Regarding `Nn1c(SCC(=O)N2CCOCC2)nnc1C1CC1`, the AC50 under setting [2] is 25.1 µM [rising, single point].

Regarding `CCCCn1cc(C(=O)c2cc(Br)ccc2O)cc(C#N)c1=O`, the half-maximal activity concentration (AC50) under setting [1] is 25.1 µM [falling, single point].

In the case of `CCOc1ccc(NC(=S)NC(=O)c2c(Cl)cnn2CC)c([N+](=O)[O-])c1`, the AC50 runs as follows: under setting [2], 11.2 µM [rising, single point]; under setting [1], 10 µM [rising, single point].

Take `CN(NC(=S)Nc1ccc(OC(F)F)cc1)C(=S)Nc1ccc(OC(F)F)cc1`: under setting [1], the AC50 is 0.112 µM [rising, full curve, poor fit].

Regarding `CCN(CC)c1ccc(NC(=O)c2ccccc2Br)cc1S(=O)(=O)Nc1ccccc1OC`, the AC50 by setting is: under setting [2], 2.82 µM [rising, single point]; under setting [1], 3.55 µM [rising, single point].

In the case of `O=C(C1CCCN(Cc2nc(-c3ccc(Cl)cc3)no2)C1)N1CCOCC1` (stereo not given), the AC50 runs as follows: under setting [2], 2.51 µM [falling, partial curve, poor fit]; under setting [1], 6.31 µM [falling, single point].

The AC50 is the concentration at which the activity in the assay is half-maximal.
